Measurements published in the supplement of paper PMC10849652.
The list shows a part of the results.

Amino acid sequences for entries named in this document (tags omitted). A change or cut given only in a name is not applied to a line headed by its entry.
UniProt Q629K1: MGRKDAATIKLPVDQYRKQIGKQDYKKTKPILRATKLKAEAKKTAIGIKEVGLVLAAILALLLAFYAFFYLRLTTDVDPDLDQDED
UniProt Q96RU7: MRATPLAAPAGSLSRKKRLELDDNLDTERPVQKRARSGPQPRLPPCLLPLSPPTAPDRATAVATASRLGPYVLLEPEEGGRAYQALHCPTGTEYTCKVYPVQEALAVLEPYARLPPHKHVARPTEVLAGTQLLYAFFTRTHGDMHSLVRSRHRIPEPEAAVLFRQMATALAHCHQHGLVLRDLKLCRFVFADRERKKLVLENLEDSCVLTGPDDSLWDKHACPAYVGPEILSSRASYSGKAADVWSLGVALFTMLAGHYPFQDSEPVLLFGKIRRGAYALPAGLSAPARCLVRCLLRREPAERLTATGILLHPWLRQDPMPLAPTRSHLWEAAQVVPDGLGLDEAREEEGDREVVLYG
UniProt Q96LD4: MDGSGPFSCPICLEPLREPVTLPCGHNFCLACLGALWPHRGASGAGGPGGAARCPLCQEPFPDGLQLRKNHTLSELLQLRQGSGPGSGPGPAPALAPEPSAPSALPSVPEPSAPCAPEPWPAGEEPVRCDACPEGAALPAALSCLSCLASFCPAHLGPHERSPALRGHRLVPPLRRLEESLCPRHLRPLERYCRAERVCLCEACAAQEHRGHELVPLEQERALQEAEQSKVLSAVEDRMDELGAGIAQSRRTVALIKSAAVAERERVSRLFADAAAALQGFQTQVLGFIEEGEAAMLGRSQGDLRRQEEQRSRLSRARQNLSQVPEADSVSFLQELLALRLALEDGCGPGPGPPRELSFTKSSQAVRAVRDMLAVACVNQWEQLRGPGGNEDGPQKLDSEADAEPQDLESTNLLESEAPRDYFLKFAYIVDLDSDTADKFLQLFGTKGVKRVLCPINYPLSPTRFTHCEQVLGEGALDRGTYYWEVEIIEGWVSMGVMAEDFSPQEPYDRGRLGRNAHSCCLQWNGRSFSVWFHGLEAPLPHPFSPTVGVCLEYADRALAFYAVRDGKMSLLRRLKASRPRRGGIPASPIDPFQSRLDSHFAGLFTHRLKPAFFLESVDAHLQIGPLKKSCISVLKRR
UniProt Q6Q0C0: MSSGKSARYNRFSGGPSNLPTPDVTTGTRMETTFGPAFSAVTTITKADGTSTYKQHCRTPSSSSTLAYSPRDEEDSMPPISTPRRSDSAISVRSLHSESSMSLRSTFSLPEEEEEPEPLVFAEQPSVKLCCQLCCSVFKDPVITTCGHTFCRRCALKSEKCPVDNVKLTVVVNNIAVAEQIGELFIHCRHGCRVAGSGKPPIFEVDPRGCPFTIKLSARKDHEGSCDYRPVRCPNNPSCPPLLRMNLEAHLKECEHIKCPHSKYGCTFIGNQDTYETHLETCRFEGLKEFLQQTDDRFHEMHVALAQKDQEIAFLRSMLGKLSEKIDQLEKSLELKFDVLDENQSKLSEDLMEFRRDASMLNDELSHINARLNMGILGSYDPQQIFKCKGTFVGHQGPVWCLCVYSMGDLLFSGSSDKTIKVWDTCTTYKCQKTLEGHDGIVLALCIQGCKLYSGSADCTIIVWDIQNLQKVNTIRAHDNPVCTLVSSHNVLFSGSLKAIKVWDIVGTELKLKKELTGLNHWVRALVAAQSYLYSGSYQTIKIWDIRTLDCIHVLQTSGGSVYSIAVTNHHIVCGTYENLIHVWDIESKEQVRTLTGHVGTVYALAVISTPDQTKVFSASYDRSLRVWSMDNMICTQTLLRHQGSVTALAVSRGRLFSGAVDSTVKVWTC
UniProt Q8WV44: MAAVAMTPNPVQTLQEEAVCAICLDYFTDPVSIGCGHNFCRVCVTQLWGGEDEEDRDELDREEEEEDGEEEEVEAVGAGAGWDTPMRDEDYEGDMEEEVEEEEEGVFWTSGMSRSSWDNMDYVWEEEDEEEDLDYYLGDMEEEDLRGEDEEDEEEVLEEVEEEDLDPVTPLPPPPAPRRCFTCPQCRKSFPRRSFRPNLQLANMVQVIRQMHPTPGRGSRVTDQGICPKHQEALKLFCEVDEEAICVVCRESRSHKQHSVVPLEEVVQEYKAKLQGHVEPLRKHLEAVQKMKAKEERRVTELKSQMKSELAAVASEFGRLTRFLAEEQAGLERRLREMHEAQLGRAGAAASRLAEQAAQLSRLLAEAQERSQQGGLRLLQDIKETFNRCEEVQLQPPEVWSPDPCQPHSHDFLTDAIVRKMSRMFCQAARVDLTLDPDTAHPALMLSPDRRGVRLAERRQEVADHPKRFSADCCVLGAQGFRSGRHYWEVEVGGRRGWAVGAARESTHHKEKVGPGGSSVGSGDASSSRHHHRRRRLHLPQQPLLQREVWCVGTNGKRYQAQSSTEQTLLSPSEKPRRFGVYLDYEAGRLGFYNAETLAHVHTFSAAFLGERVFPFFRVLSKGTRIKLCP
UniProt O43715: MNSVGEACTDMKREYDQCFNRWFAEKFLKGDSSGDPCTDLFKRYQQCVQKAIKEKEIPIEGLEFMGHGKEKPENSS
UniProt Q9H2G4: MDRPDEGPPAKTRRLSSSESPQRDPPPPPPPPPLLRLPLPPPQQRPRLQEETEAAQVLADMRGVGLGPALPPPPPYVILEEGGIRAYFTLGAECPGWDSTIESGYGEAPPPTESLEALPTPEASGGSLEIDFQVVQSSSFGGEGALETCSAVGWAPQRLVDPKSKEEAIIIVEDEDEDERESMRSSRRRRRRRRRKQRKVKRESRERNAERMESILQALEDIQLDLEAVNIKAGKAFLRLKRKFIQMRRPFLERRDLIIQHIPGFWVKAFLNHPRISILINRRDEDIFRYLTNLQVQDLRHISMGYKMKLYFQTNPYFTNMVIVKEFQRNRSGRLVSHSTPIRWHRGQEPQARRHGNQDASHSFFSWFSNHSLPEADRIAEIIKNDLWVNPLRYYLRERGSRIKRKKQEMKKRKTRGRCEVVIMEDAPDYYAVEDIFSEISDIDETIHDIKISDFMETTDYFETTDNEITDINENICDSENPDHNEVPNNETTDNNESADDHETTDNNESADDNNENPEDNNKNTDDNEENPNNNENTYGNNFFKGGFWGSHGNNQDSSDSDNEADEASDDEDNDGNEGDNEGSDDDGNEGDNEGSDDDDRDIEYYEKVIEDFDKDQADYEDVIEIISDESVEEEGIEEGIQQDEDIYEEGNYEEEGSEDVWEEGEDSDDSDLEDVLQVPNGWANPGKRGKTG
UniProt O60637: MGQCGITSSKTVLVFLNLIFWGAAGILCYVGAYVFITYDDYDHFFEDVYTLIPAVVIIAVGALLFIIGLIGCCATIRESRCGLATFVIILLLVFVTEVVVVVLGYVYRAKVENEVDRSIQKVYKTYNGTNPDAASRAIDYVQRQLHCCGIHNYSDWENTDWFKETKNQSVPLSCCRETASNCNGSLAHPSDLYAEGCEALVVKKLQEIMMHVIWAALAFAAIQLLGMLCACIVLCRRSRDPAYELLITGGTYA
UniProt Q8TD43: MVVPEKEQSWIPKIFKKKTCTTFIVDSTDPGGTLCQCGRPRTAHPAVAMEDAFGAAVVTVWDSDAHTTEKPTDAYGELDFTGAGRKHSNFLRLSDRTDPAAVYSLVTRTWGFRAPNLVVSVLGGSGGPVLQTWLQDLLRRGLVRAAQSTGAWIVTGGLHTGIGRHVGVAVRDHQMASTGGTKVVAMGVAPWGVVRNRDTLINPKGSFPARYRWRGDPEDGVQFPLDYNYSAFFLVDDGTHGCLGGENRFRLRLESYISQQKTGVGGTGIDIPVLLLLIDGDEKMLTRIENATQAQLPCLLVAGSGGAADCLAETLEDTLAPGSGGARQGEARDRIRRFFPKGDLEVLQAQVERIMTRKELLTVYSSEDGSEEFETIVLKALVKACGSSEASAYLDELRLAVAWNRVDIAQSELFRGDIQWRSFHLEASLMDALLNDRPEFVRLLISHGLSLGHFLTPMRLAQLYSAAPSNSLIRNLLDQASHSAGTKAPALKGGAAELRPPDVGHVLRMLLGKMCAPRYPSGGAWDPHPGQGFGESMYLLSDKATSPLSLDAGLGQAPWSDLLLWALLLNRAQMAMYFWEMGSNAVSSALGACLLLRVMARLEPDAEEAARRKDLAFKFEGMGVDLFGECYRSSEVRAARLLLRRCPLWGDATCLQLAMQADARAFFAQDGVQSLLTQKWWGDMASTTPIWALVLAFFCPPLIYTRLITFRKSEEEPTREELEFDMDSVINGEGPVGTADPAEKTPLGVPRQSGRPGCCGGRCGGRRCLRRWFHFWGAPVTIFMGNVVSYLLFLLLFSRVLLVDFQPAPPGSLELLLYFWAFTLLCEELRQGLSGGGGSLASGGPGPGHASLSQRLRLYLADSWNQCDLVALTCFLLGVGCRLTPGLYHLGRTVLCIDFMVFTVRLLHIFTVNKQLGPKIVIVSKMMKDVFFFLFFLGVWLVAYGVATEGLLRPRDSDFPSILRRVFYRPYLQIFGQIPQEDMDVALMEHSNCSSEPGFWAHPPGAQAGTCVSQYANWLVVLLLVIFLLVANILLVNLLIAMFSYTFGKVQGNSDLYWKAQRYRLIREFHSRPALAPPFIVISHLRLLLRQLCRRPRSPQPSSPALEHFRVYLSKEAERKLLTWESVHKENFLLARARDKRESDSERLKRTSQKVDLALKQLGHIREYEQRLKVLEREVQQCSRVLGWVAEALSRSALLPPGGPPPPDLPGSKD
UniProt Q86TN4: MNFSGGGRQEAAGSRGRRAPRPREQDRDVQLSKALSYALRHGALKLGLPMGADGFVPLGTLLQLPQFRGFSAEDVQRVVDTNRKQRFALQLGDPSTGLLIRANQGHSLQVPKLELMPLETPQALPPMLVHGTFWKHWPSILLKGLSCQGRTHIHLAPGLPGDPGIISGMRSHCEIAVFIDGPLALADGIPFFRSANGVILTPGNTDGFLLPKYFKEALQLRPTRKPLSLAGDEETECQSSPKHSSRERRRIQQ
UniProt Q8IUR0, whole entry, looked up: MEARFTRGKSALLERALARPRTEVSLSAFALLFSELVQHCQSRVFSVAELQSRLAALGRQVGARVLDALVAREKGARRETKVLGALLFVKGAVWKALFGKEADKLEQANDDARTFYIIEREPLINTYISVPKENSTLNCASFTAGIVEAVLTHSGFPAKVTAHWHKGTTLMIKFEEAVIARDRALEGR
UniProt Q9H0U9: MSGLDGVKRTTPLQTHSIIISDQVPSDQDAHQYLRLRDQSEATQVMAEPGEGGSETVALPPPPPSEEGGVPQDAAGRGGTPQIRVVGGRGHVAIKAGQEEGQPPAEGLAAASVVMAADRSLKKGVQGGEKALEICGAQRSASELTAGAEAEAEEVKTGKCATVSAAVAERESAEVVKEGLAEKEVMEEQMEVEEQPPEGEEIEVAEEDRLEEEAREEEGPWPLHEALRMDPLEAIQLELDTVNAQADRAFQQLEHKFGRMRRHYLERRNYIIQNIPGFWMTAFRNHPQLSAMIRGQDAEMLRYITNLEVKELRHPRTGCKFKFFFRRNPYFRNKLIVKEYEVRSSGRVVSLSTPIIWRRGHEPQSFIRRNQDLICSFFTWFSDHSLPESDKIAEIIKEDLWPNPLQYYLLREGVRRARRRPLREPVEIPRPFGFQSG
UniProt O14717: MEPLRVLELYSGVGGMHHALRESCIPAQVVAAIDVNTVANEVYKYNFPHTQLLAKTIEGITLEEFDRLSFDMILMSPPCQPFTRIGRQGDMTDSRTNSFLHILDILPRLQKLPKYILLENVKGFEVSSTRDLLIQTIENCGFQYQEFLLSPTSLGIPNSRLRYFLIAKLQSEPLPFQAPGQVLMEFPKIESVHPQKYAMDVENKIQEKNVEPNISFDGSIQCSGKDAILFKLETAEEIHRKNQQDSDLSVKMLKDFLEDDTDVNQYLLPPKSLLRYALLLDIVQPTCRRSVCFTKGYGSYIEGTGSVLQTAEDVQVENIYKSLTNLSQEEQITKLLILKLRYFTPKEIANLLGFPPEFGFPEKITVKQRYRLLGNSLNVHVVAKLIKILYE
UniProt Q15650: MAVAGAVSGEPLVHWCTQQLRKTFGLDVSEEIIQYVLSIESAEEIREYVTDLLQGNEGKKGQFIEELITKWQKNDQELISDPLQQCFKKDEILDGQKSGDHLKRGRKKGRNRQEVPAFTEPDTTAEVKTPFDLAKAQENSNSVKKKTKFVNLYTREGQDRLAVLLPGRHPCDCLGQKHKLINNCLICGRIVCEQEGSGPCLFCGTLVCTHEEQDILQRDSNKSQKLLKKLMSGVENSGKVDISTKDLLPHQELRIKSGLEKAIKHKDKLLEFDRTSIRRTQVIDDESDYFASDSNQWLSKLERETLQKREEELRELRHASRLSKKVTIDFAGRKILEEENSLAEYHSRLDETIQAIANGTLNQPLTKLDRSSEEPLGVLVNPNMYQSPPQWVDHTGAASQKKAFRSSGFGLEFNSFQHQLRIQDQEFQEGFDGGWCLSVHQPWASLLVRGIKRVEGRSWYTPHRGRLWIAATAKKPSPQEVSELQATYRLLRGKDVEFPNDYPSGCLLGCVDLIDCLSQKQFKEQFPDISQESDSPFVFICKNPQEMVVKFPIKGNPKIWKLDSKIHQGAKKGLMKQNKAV

How the values were obtained:
Assay in all cases: log2 fold change, soluble protein after heating vs DMSO (PISA); higher = thermal stabilisation; K562 lysate, 10 uM; active = over 0.2 and 3.5 SD of the protein, either way, in both replicates (recomputed)
[1] = compound: Cc1sc2c(c1C)C(c1ccc(Cl)cc1)=N[C@@H](CC(=O)OC(C)(C)C)c1nnc(C)n1-2
Summary of the method: (§1)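 Thermal stability, expressed as log-two fold change relative to solvent controls, is given from duplicates. Crude K562 extract in PBS pH 7.4 with 1 mM MgCl2, at 1 mg/mL protein, was treated with 10 μM compound for 30 min and heated in aliquots for 3 min across 48°C-58°C. After pooling, adjustment to 0.5% NP-40 at 4°C and centrifugation at 21,000xg for 90 min, supernatant protein was measured by TMTpro 16plex LC-MS/MS with channel sums equalised.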

[2] = compound: C1=CC=C(C=C1)[C@H](COC2=CC3=C(C=C2)NC(=O)N3)NC(=O)C4=CC=CN(C4=O)CC5=CC(=C(C=C5)F)F
Summary of the method: as §1

[3] = compound: CC1=C(SC2=C1C(=N[C@H](C3=NN=C(N32)C)CC(=O)N)C4=CC=C(C=C4)Cl)C
Summary of the method: as §1

[4] = compound: CC1=C2C(=CC=C1)N=C(N(C2=O)C3=CC=CC=C3C)CN4C=NC5=C(N=CN=C54)N
Summary of the method: as §1

[5] = compound: c1ccc([C@@H]2C[C@H]2NC2CCNCC2)cc1
Summary of the method: as §1

Row | Target | log2 fold change [1] | log2 fold change [2] | log2 fold change [3] | log2 fold change [4] | log2 fold change [5]
1 | TTC3 (UniProt P53804) | inactive: 0.072 |  |  |  | 
2 | TRIM16 (UniProt O95361) | inactive: -0.108 |  |  |  | 
3 | TRIQK (UniProt Q629K1) | inactive: -0.369 | inactive: 0.007 | inactive: 0.041 |  | 
4 | TRIB3 (UniProt Q96RU7) | inactive: 0.186 |  |  |  | 
5 | TSPAN4 (UniProt O14817) |  |  |  | inactive: 0.042 | 
6 | TRIM47 (UniProt Q96LD4) | inactive: -0.193 |  |  | inactive: 0.032 | inactive: -0.012
7 | TRAF7 (UniProt Q6Q0C0) | inactive: -0.005 |  |  | inactive: 0.007 | inactive: 0.238
8 | TRIM3 (UniProt O75382) |  |  |  | inactive: 0.197 | 
9 | TRIM41 (UniProt Q8WV44) | inactive: 0.177 |  |  | inactive: -0.089 | inactive: 0.055
10 | TRMT13 (UniProt Q9NUP7) | inactive: 0.009 | inactive: 0.013 | inactive: -0.012 | inactive: 0.004 | inactive: -0.066
11 | TRIAP1 (UniProt O43715) | inactive: -0.029 |  |  | inactive: -0.06 | inactive: 0.202
12 | TSPYL2 (UniProt Q9H2G4) | inactive: -0.066 |  |  |  | inactive: 0.062
13 | TRAF3IP2 (UniProt O43734) |  |  |  | inactive: -0.087 | inactive: 0.081
14 | TRUB2 (UniProt O95900) | inactive: -0.113 |  |  | inactive: -0.009 | inactive: 0.099
15 | TTLL12 (UniProt Q14166) | inactive: 0.015 | inactive: -0.004 | inactive: 0.013 | inactive: 0.011 | inactive: 0.033
16 | TSPAN3 (UniProt O60637) | inactive: 0.006 |  |  | inactive: 0.174 | inactive: 0.16
17 | TRPM4 (UniProt Q8TD43) | inactive: -0.042 | inactive: -0.074 | inactive: 0.114 |  | inactive: -0.354
18 | TRPT1 isoform 4 (UniProt Q86TN4) | inactive: 0.104 | inactive: -0.035 | inactive: 0.032 | inactive: 0.015 | inactive: 0.145
19 | TRAPPC5 (UniProt Q8IUR0) | inactive: 0.046 | inactive: -0.011 | inactive: 0.048 | inactive: 0.03 | inactive: 0.059
20 | TRIM37 (UniProt O94972) | inactive: 0 |  |  |  | 
21 | TRMT2B (UniProt Q96GJ1) | inactive: -0.021 | inactive: -0.126 | inactive: 0.218 |  | inactive: 0.096
22 | TTC30B (UniProt Q8N4P2) |  |  |  | inactive: 0.027 | inactive: 0.157
23 | TRMT10B (UniProt Q6PF06) |  |  |  |  | inactive: 0.07
24 | TSPYL1 (UniProt Q9H0U9) | inactive: -0.072 | inactive: -0.014 | inactive: -0.08 |  | inactive: -0.034
25 | TRDMT1 (UniProt O14717) | inactive: -0.177 |  |  | inactive: -0.224 | 
26 | TRRAP (UniProt Q9Y4A5) | inactive: 0.015 | inactive: -0.022 | inactive: -0.021 | inactive: 0.004 | inactive: 0.018
27 | TRIP4 (UniProt Q15650) | inactive: -0.062 | inactive: 0.017 | inactive: 0.013 | inactive: 0.04 | inactive: 0.007
28 | TSEN15, A0A2U3TZM3 | inactive: -0.411 |  |  | inactive: 0.122 | inactive: 0.067
29 | TRPM7 (UniProt Q96QT4) | inactive: -0.11 |  |  | inactive: 0.185 | inactive: 0.176
30 | TSPAN31 (UniProt Q12999) | inactive: 0.094 |  |  | inactive: 0.034 | 

Some values from above:
TRUB2 (UniProt O95900) | log2 fold change [4]: inactive: -0.009
TRRAP (UniProt Q9Y4A5) | log2 fold change [2]: inactive: -0.022
